# No constants are given. Whether binding was seen depends on the method and setting. Binding seen in cells or lysates may run through a third protein. For part of these data: Binding calls can cover weak binding; strength is not graded here. Tags and fused reporters may be left off the sequences shown.
# By UniProt entry, the sequences of proteins in these tests, tags left out. Where a name states a change or a piece, a line headed by the entry shows the natural chain unless it says otherwise.
# UniProt P39938: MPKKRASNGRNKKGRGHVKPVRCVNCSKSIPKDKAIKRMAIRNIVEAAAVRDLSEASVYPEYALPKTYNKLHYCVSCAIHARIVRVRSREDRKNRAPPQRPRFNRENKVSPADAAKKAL
# Tests used:
# [1] = target: T1, GST-Kap104 (S. cerevisiae) (UniProt P38217); experiment: pull-down; GST-importins immobilised on Glutathione Sepharose, incubated with purified 3.4 µM Tsr2 or 4 µM Tsr2:eS26 in PBSKMT with competing E. coli lysates for 1 hr at 4°C; Coomassie Blue staining or Western; both purified
# T1 sequence: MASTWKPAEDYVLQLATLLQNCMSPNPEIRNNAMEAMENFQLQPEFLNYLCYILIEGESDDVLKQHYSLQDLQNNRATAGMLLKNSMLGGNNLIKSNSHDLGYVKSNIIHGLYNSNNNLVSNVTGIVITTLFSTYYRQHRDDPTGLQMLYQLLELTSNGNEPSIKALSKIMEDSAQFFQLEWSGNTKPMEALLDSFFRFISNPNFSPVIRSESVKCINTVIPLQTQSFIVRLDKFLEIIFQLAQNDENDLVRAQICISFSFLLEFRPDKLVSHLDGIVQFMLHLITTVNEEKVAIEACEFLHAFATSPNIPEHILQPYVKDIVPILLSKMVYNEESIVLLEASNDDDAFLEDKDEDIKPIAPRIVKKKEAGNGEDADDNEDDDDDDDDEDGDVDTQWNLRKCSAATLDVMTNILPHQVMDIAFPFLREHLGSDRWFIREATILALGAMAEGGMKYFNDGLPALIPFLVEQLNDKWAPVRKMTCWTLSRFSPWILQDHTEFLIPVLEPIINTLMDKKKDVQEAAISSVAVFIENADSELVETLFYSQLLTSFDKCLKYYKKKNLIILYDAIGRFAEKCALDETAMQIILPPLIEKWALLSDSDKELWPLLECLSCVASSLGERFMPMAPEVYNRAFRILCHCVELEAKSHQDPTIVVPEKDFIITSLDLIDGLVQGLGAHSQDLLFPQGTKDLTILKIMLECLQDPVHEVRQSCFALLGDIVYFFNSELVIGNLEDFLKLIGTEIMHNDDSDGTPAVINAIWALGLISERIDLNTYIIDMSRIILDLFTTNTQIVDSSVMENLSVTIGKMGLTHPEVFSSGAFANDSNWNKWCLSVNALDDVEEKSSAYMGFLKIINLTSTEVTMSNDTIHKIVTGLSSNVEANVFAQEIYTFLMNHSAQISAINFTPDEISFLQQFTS
# [2] = target: T2, GST-Kap123 (S. cerevisiae) (UniProt P40069); experiment: as above
# T2 sequence: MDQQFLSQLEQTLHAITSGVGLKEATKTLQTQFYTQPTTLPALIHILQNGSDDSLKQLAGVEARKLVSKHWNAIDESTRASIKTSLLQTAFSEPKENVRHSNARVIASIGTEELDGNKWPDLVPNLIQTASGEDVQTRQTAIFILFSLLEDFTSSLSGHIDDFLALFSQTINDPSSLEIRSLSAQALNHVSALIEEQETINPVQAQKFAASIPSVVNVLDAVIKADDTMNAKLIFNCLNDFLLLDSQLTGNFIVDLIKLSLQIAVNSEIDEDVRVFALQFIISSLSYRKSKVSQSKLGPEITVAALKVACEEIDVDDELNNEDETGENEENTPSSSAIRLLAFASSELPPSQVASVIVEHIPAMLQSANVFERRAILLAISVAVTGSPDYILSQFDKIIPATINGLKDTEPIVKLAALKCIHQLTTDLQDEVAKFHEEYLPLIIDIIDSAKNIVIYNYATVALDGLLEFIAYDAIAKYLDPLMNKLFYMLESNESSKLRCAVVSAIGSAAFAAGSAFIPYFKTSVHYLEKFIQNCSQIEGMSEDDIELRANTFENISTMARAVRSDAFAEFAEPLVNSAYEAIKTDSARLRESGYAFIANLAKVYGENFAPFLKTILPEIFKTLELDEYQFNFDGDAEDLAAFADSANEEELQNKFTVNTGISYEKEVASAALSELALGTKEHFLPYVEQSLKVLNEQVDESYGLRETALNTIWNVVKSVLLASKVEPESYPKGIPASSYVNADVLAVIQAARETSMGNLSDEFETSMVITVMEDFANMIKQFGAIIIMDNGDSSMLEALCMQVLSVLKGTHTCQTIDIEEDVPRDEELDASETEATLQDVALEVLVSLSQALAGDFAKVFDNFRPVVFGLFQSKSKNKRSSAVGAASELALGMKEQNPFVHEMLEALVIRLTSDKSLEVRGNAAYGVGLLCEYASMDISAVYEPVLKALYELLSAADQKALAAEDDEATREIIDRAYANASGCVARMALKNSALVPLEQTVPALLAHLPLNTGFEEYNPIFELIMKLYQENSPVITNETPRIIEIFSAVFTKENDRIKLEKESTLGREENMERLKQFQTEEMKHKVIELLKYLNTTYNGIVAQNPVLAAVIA
# [3] = target: T2, GST-Kap123 (S. cerevisiae); experiment: pull-down; dissociation kinetics: pre-immobilised GST-importin:eS26^FLAG complexes with buffer, 1.5 µM or 375 nM RanGTP or Tsr2; samples withdrawn at 1, 2, 4 and 8 min; only the target purified
Substance,binding [1],binding [2],binding [3]
Tsr2:eS26 complex (S. cerevisiae),no binding (tested: 4 µM Tsr2:eS26),no binding (tested: 4 µM Tsr2:eS26),–
eS26^FLAG (from UniProt P39938),–,–,binds
